According to US20130203823A1, “STABLE TOPICAL COMPOSITIONS FOR 1,2,4-THIADIAZOLE DERIVATIVES” (JANSSEN PHARMACEUTICAL, INC., priority 2009, published 2013):
Some of these results come from one statement about several compounds together.

Experiment: Stability of the compound in the composition on storage, concentration by HPLC versus initial concentration
Format: physicochemical
Conditions: refrigerated condition
Text: The compositions of the present invention have desired and improved properties, including the extended shelf-life or stability and the suitable commercial production. As used herein, the terms ‘stable composition’, ‘stable formulation’, ‘composition with extended shelf-life’ or variants thereof refer to the compound of Formula I, II, or III (and most preferably Compounds Ia, IIa, and IIIa) in the composition is stable. The stability or shelf-life of the compound may be determined by measuring the concentration and any degradation product of the compound of Formula I, II or III in the compositions using high performance liquid chromatography (HPLC). As commonly referred in the art, the compound is considered to be stable or being stabilized when the concentration of the compound retains at least about 90% to at least about 110%, preferably at least about 95% to at least about 105%, of the original concentration of the compound.
By way of example, the stability of the compound of Formula I, II, or III is determined using HPLC equipped with a temperature-controlled autosampler, a thermostatic column compartment, and an UV detector at about 326 nm (Agilent 1100, Waters alliance HPLC). A Zorbax C18 column is used for analyzing Compound Ia and a YMC-Pack Hydrosphere C18 column is used for analyzing Compound IIa. A binary linear gradient of mobile phases A and B is used. […]

Row | Compound | Time for which the compound was stable (emulsion composition H) | Time for which the compound was stable (emulsion G)
1 | COc1ccccc1-c1nc(=Nc2ccccc2)sn1-c1ccccc1OC [Compound IIa, [2-(2-methoxyphenyl)-3-(2-methoxyphenyl)-2H-[1,2,4]-thiadiazol-5-ylidene]-phenylamine] | at least 4 weeks | 
2 | COc1ccccc1-c1nc(Nc2ccccc2)s[n+]1-c1ccccc1OC.[Br-] [Compound Ia, 2-(2-methoxyphenyl)-3-(2-methoxyphenyl)-5-phenylamino-[1,2,4]-thiadiazol-2-ium] |  | at least 4 weeks
